Laboratory results: PubChem BioAssay AID602196 (INSERM, 2012)

- Aim: 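Modifiers of cisplatin sensitivity in A549 cells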
- Cell system: human A549 lung cancer cells
- Knock-down reagent: siRNA pair against human genes
- Timing: 48 h transfection before cisplatin; time from cisplatin to read-out not stated
- Conditions: cisplatin at a dose killing half of control-siRNA cells; exact dose and duration not given
- Read-out: 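Cisplatin cell death as a shift from the 50% death seen with control siRNA; siRNAs toxic or growth-blocking alone scored 0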
- Scale: two-siRNA summed score (-2 to +2): higher = both siRNAs protect from cisplatin killing; -2 means both sensitise; mean protection from cisplatin (shift in death) and protection from cisplatin (shift in death), siRNA C and protection from cisplatin (shift in death), siRNA D: higher = protection from cisplatin killing
- Rule for the call: 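siRNAs harmful alone (LDH or WST-1) get 0; others get +1 for less and -1 for more cisplatin killing; genes are active when the two siRNAs give the same sign, summing to ±2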
- Meaning of the calls: active = both siRNAs shift cisplatin killing the same way; inactive = no consistent shift, or siRNA harmful alone
Shown is an unselected part of about 23,000 reagents tested. 455 of all reagents (2%) were called active. 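Active includes both protection and sensitisation; some change values fall well beyond the stated -50 to +50 range.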 Not given: the amount of reagent.

Gene	two-siRNA summed score (-2 to +2)	mean protection from cisplatin (shift in death) (%)	protection from cisplatin (shift in death), siRNA C (%)	protection from cisplatin (shift in death), siRNA D (%)	Call
TUBA1A (GeneID 7846)	-1	-16.8	-8.7	-25	inactive
ZNF669 (GeneID 79862)	1	6.6	-0.7	13.9	inactive
GPX1 (GeneID 2876)	0	1.6	14.9	-11.8	inactive
LOC139604	1	17.8	14.3	21.3	inactive
PLD4 (GeneID 122618)	0	-0.5	8.8	-9.8	inactive
P2RX3 (GeneID 5024)	1	7.1	19.6	-5.5	inactive
NISCH (GeneID 11188)	0	4.4	5.5	3.4	inactive
SLC2A7 (GeneID 155184)	-1	-7.7	-17.3	1.8	inactive
IAPP (GeneID 3375)	-1	-33.9	-46.4	-21.3	inactive
KIAA0794	-1	-1.9	15.9	-19.7	inactive
EXOC5 (GeneID 10640)	0	6.9	7	6.7	inactive
LOC440842	1	16.2	18.7	13.6	inactive
VPS13A (GeneID 23230)	0	2.1	4.9	-0.6	inactive
AARSD1 (GeneID 80755)	0	5.7	7.1	4.3	inactive
CUTC (GeneID 51076)	0	-1.8	-5.4	1.9	inactive
ZNF639 (GeneID 51193)	0	10.3	12.8	7.7	inactive
GTF2A1L (GeneID 11036)	1	16.8	20.3	13.3	inactive
RASGRF1 (GeneID 5923)	0	5.1	10.7	-0.6	inactive
CIB1 (GeneID 10519)	1	7.8	12	3.5	inactive
PPP1R14B (GeneID 26472)	1	16.1	13.3	18.9	inactive
SMG5 (GeneID 23381)	0	7.2	0.9	13.5	inactive
GPR25 (GeneID 2848)	0	9.1	-7	25.1	inactive
RTL4 (GeneID 340595)	1	4.7	-4.1	13.4	inactive

Records above whose target name begins with S or s (2):
Gene	two-siRNA summed score (-2 to +2)	mean protection from cisplatin (shift in death) (%)	protection from cisplatin (shift in death), siRNA C (%)	protection from cisplatin (shift in death), siRNA D (%)	Call
SLC2A7 (GeneID 155184)	-1	-7.7	-17.3	1.8	inactive
SMG5 (GeneID 23381)	0	7.2	0.9	13.5	inactive
